From paper PMC9237684

Sequences of proteins named here, by UniProt entry; tags and fusion partners are left off. A change or cut given only in a name is not applied to a line headed by its entry.
UniProt Q9SGW5: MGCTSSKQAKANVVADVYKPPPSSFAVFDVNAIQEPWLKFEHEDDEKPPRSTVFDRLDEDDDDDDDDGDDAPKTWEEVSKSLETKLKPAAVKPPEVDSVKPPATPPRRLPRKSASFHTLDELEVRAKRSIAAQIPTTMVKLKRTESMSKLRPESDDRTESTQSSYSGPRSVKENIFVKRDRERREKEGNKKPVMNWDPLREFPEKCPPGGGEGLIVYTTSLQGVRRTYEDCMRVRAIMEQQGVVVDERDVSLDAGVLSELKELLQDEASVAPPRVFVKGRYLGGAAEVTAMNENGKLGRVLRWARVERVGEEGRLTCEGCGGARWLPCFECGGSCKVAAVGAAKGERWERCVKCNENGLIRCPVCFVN
UniProt P93025: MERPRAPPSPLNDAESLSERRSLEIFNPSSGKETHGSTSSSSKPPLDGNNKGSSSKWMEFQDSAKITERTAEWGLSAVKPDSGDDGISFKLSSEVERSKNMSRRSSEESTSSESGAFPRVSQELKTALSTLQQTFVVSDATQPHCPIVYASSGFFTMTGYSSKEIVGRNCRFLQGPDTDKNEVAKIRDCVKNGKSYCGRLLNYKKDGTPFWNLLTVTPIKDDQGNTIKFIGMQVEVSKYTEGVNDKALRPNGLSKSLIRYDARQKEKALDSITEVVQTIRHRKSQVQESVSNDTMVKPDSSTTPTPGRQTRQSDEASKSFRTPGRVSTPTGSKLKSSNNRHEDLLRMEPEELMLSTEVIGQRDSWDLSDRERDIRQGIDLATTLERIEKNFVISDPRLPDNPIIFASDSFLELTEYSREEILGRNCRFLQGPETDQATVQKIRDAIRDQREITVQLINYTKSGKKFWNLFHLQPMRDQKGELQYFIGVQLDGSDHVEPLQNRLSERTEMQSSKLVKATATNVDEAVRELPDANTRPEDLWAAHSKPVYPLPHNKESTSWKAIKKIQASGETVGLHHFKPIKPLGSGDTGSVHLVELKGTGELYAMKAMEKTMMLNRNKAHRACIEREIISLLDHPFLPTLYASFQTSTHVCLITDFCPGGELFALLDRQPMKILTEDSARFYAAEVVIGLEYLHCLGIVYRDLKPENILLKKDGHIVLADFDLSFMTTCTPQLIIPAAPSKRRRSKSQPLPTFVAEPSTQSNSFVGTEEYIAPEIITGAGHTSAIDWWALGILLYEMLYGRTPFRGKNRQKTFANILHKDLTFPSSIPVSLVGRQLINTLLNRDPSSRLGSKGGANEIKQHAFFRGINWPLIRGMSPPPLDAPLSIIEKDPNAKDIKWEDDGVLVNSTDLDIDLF

B1: 14-3-3 LAMBDA, expressed in N. benthamiana leaves (tag not stated) (protein, UniProt P48349 1-248)
chain: MAATLGRDQYVYMAKLAEQAERYEEMVQFMEQLVTGATPAEELTVEERNLLSVAYKNVIGSLRAAWRIVSSIEQKEESRKNDEHVSLVKDYRSKVESELSSVCSGILKLLDSHLIPSAGASESKVFYLKMKGDYHRYMAEFKSGDERKTAAEDTMLAYKAAQDIAAADMAPTHPIRLGLALNFSVFYYEILNSSDKACNMAKQAFEEAIAELDTLGEESYKDSTLIMQLLRDNLTLWTSDMQEQMDEA
B2: 14-3-3 KAPPA with HA tag (KAPPA:HA) (protein, UniProt P48348 1-248)
chain: MATTLSRDQYVYMAKLAEQAERYEEMVQFMEQLVSGATPAGELTVEERNLLSVAYKNVIGSLRAAWRIVSSIEQKEESRKNEEHVSLVKDYRSKVETELSSICSGILRLLDSHLIPSATASESKVFYLKMKGDYHRYLAEFKSGDERKTAAEDTMIAYKAAQDVAVADLAPTHPIRLGLALNFSVFYYEILNSSEKACSMAKQAFEEAIAELDTLGEESYKDSTLIMQLLRDNLTLWTSDMQEQMDEA
B3: 14-3-3 OMEGA with HA tag (OMEGA:HA) (protein, UniProt Q01525 1-259)
chain: MASGREEFVYMAKLAEQAERYEEMVEFMEKVSAAVDGDELTVEERNLLSVAYKNVIGARRASWRIISSIEQKEESRGNDDHVTAIREYRSKIETELSGICDGILKLLDSRLIPAAASGDSKVFYLKMKGDYHRYLAEFKTGQERKDAAEHTLAAYKSAQDIANAELAPTHPIRLGLALNFSVFYYEILNSPDRACNLAKQAFDEAIAELDTLGEESYKDSTLIMQLLRDNLTLWTSDMQDDAADEIKEAAAPKPTEEQQ
B4: PMI1 co-expressed with THRUMIN1:YFP in N. benthamiana leaves (tag not stated) (protein, UniProt Q9C8E6 1-843)
chain: MAGEYSGSRSSNTQLLAELEALSENLYQKPQVSVGNRRTNSLALPRSSVPSLVTSADEVSTARAEDLTVSKPRARRLSLSPWRSRPKLEVEEEENVTQSNRIVKKPEESSSGSGVKEEKKGIWNWKPIRGLVRIGMQKLSCLLSVEVVAAQNLPASMNGLRLGVCVRKKETKDGAVQTMPCRVSQGSADFEETLFIKCHVYYSPANGKGSPAKFEARPFLFYLFAVDAKELEFGRHVVDLSELIQESVEKMNYEGARVRQWDMNWGLSGKAKGGELALKLGFQIMEKDGGAGIYSKQGEFGMKPSSKPKNFANSFGRKQSKTSFSVPSPKMTSRSEAWTPASGVESVSDFHGMEHLNLDEPEEKPEEKPVQKNDKPEQRAEDDQEEPDFEVVDKGVEFDDDLETEKSDGTIGERSVEMKEQHVNVDDPRHIMRLTELDSIAKQIKALESMMKDESDGGDGETESQRLDEEEQTVTKEFLQLLEDEETEKLKFYQHKMDISELRSGESVDDESENYLSDLGKGIGCVVQTRDGGYLVSMNPFDTVVMRKDTPKLVMQISKQIVVLPEAGPATGFELFHRMAGSGEELESKISSLMAIDELMGKTGEQVAFEGIASAIIQGRNKERANTSAARTVAAVKTMANAMSSGRRERIMTGIWNVEENPLTSAEEVLAVSLQKLEEMVVEGLKIQADMVDDEAPFEVSAAKGQKNPLESTIPLEEWQKEHRTQQKLTVLATVQLRDPTRRYEAVGGTVVVAVQAEEEEEKGLKVGSLHIGGVKKDAAEKRRLTAAQWLVEHGMGKKGKKKSNIKKKEKEEEEEEMLWSLSSRVMADMWLKSIRNPDVKLH
B5: KAC1 co-expressed with THRUMIN1:YFP in N. benthamiana leaves (tag not stated) (protein, UniProt Q9LX99 1-1273)
chain: MADQRSKTNRWNWEVSGFEPRKSSSNASFAESTGHRTTGPLLRRNSISTPSLPPKQAIASKVNGLKEKVKLAKEDYLELRQEATDLQEYSNAKLDRVTRYLGVLAEKSRKLDQFVLETEARISPLINEKKRLFNDLLTAKGNIKVFCRARPLFEDEGPSVIEFPGDCTICVNTSDDTLSNPKKDFEFDRVYGPHVGQAALFSDVQPFVQSALDGSNVSILSYGQTNAGKTYTMEGSNHDRGLYARCFEELFDLANSDSTSTSRFSFSLSVFEIYNEQIRDLLSETQSNLPNINMDLHESVIELGQEKVDNPLEFLGVLKSAFLNRGNYKSKFNVTHLIVSIHIYYSNTITGENIYSKLSLVDLAGSEGLIMENDSGDHVTDLLHVMNSISALGDVLSSLTSGKDSIPYDNSILTRVLADSLGGSSKTLMIVNICPSVQTLSETISCLNYAARARNTVPSLGNRDTIKKWRDVASDARKELLEKERENQNLKQEVVGLKKALKDANDQCVLLYSEVQRAWKVSFTLQSDLKSENIMLVDKHRLEKEQNSQLRNQIAQFLQLDQEQKLQMQQQDSAIQNLQAKITDLESQVSEAVRSDTTRTGDALQSQDIFSPIPKAVEGTTDSSSVTKKLEEELKKRDALIERLHEENEKLFDRLTERSMAVSTQVLSPSLRASPNIQPANVNRGEGYSAEAVALPSTPNKNNGAITLVKSGTDLVKTTPAGEYLTAALNDFDPEEYEGLAAIADGANKLLMLVLAAVIKAGASREHEILAEIRDSVFSFIRKMEPRRVMDTMLVSRVRILYIRSLLARSPELQTIRVSPVECFLEKPNTGRSKSTSRGSSPGRSPVRYLDTQIHGFKVNIKAERRNKLASVVSRMRGLEQDAGRQQVTGVKLREMQDEAKSFAIGNKALAALFVHTPAGELQRQIRLWLAENFEFLSVTSDDVSGGNGGQLELLSTAIMDGWMAGLGAAVPPHTDALGQLLSEYAKRVYTSQMQHMKDIAGTLAAEEAEDAGQVSKLRSALESVDHKRRKILQQMKSDAALLNLEEGSSPIPNPSTAAEDSRLASLISLDGILKQVKEITRQASVHVLSKSKKKALLESLDELTERMPSLLDIDHPCAQREIATAHQLVETIPEQEDTNILEQSHDRRPSLESISSGETDVSQWNVLQFNTGSSAPFIIKCGGNNNSELVIKADARVQEPKGGEIVRVVPRPSVLVNMSLEEMKQMFVQLPEALSLLALARTADGTRARYSRLYKTLAMKVPSLKDLVSELE

What follows are molecules tested against THRUMIN1:YFP, transiently expressed in N. benthamiana leaves (Arabidopsis thaliana) (UniProt Q9SGW5) (assay: co-IP; N. benthamiana leaves transiently co-expressing the transgenes (35S promoter), 48 h postinfiltration, no crosslinking; YFP fusion held on GFP-Trap agarose; where noted leaves given 10 min high blue light (~50 umol m^-2 s^-1) or darkness before extraction).

Row | Molecule | binding
1 | B1 | binds
2 | B2 | binds
3 | B3 | binds
4 | B4 | no binding
5 | B5 | no binding

Biological target: THRUMIN1:YFP, transiently expressed in N. benthamiana leaves (Arabidopsis thaliana) (UniProt Q9SGW5)
Experiment: as above
Remark: another data set of the same source

Row | Molecule | binding
6 | Phototropin2 (Phot2), transiently expressed in N. benthamiana leaves (from UniProt P93025 1-915) (receptor) | no binding

No constants are given. Whether binding was seen depends on the method and setting. In cells and extracts the contact can be indirect. For part of these data: Binding calls can cover weak binding; strength is not graded here. For part of these data: Where a sequence is shown, tags or fusion partners need not be part of it.
